These are literature values, as cited in patent publication US20220287943A1, “METHOD FOR TREATING KERATIN MATERIAL, COMPRISING THE APPLICATION OF AN ORGANIC C1-C6-ALKOXY-SILANE AND AN AMINO ACID AND/OR AMINO ACID DERIVATIVE” (Henkel AG & Co. KGaA, priority 2019, published 2022).

For this series the following is noted: about 25° C.

In the case of `CCN(Cc1cccc(S(=O)(=O)[O-])c1)c1ccc(C(=C2C=CC(=[N+](CC)Cc3cccc(S(=O)(=O)[O-])c3)C=C2)c2ccccc2S(=O)(=O)[O-])cc1.[Na+].[Na+]` [Acid Blue 9], the solubility in water result was “more than 20 % by weight”.
